In PubChem BioAssay AID292 (DTP/NCI, 2004):
The list shows only some results of the screen, not a fair sample: it is rich in T/C values a quarter to a half above the control, in often repeated tests (any T/C) and in doses without a T/C. Other doses and runs of a compound stand elsewhere. T/C: endpoint of the treated group in % of that of the vehicle group. Some entries give survivors of the animals treated and no T/C: the source files T/C as zero there, which appears to mark a toxic dose or a test without result, not a measured value. Some survivor counts are full or nearly so, which does not show that the dose was tolerated: the source hardly ever lists a survival T/C far under the control, and the zero likely stands for such cases as well. Survivors were counted at the toxicity check, usually on the fifth day, unless a day is given; later deaths do not show. Schedules are NCI's codes, taken here to give the interval after Q, in days (D) or hours (H), and the number of doses after X. Some doses were run more than once; their values stand side by side, smallest first. Signs of the kind (2×) say how often a value occurs here. Where survival is the endpoint, the PubChem record calls one and a half times the control and up active, and a quarter to a half above the control has no call in these data; cut-offs in other NCI protocols can differ.

System: B6C3F1 mice, ip Sarcoma M5076, median survival T/C
Assay: NCI In Vivo Anticancer Drug Screen. Data for tumor model Sarcoma M5076 (intraperitoneal) in B6C3F1 mice
Conditions: T/C endpoint: median survival time, schedule: Q04DX004 (ip), higher T/C = longer survival
How it was run: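 Transplantable tumour in mice; compound-treated vs vehicle-treated groups. Read-out: survival. Value = treated/control ratio.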

[1] = dose: 400.0 mg/kg/injection, vehicle: saline with Tween-80
[2] = dose: 100.0 mg/kg/injection, vehicle: saline with Tween-80
[3] = dose: 200.0 mg/kg/injection, vehicle: saline with Tween-80

CNc1ncn(-c2c(C)cccc2C)c(=O)n1
survivor count (dose: 150.0 mg/kg/injection, vehicle: saline with Tween-80): 5 of 10 on day 14
survivor count (dose: 300.0 mg/kg/injection, vehicle: saline with Tween-80): 6 of 10 on day 14
survivor count (dose: 600.0 mg/kg/injection, vehicle: saline with Tween-80): 0 of 10 on day 14
survivor count (dose: 1200.0 mg/kg/injection, vehicle: saline with Tween-80): 0 of 10 on day 14 (2×)

Oc1cccc2ccccc12
survivor count (dose: 200.0 mg/kg/injection, vehicle: water): 9 of 10 on day 14
survivor count (dose: 400.0 mg/kg/injection, vehicle: water): 0 of 10 on day 14

C=C(OC)C(Nc1cc(OC)c(OC)cc1C(=O)OC1CC(O[C@@H]2C(=O)C(NC(=O)OC)=C3/C(=C\CSSSC)[C@]2(O)C#C/C=C\C#C[C@@H]3OC2OC(C)C(NOC3CC(O)C(SC)C(C)O3)C(O)C2OC2CC(OC)C(NCCC)CO2)OC(C)C1O)OC (stereo partly specified)
T/C (dose: 0.16 micrograms/kg/injection, vehicle: saline + alcohol): 127 % of control
T/C (dose: 0.64 micrograms/kg/injection, vehicle: saline + alcohol): 139 % of control
survivor count (dose: 2.56 micrograms/kg/injection, vehicle: saline + alcohol): 8 of 10 on day 14

O=C(N/N=C/c1ccco1)c1ccc(OCc2nc3ccccc3[nH]2)cc1
survivor count [1]: 10 of 10 on day 14

O=C(CN1CCOCC1)Nc1nc(-c2ccc(Cl)cc2)cs1
survivor count (dose: 200.0 mg/kg/injection, vehicle: DMSO): 9 of 10 on day 14
survivor count (dose: 400.0 mg/kg/injection, vehicle: DMSO): 10 of 10 on day 14
survivor count (dose: 800.0 mg/kg/injection, vehicle: DMSO): 10 of 10 on day 14
survivor count (dose: 1200.0 mg/kg/injection, vehicle: DMSO): 10 of 10 on day 14

COc1nc2cc3c(cc2n2cccc12)oc1ccccc13
survivor count (dose: 1.5 mg/kg/injection, vehicle: saline with Tween-80): 10 of 10 on day 14
survivor count (dose: 3.0 mg/kg/injection, vehicle: saline with Tween-80): 10 of 10 on day 14
survivor count (dose: 3.13 mg/kg/injection, vehicle: saline with Tween-80): 9 of 10 on day 14
survivor count (dose: 6.0 mg/kg/injection, vehicle: saline with Tween-80): 9 of 10 on day 14
survivor count (dose: 6.25 mg/kg/injection, vehicle: saline with Tween-80): 10 of 10 on day 14
survivor count (dose: 12.5 mg/kg/injection, vehicle: saline with Tween-80): 9 of 10 on day 14
survivor count (dose: 25.0 mg/kg/injection, vehicle: saline with Tween-80): 9 of 10 on day 14 and 10 of 10 on day 14
survivor count (dose: 50.0 mg/kg/injection, vehicle: saline with Tween-80): 2 of 10 on day 14 and 9 of 10 on day 14
survivor count [2]: 10 of 10 on day 14
survivor count [3]: 8 of 10 on day 14
survivor count [1]: 8 of 9 on day 14

N#CC1C(=O)NC(=O)C(C#N)C1C1C(=O)NC2CCCCC21 (stereo unspecified)
survivor count (dose: 700.0 mg/kg/injection, vehicle: saline with Tween-80): 10 of 10

c1ccc(-c2nc3cc4c(cc3n3cccc23)oc2ccccc24)cc1
survivor count [2]: 10 of 10 on day 14
survivor count [3]: 8 of 10 on day 14

O=C(Nc1ccccc1)c1cc2ccccc2oc1=O
survivor count (dose: 112.5 mg/kg/injection, vehicle: saline with Tween-80): 9 of 10 on day 14
survivor count (dose: 225.0 mg/kg/injection, vehicle: saline with Tween-80): 9 of 10 on day 14
survivor count (dose: 450.0 mg/kg/injection, vehicle: saline with Tween-80): 10 of 10 on day 14
